Patent publication EP0028716B1, “Motility increasing peptides and their use” (HOECHST AKTIENGESELLSCHAFT, priority 1979, dated 1986)

System: Motorik des Magen-Darmtrakts und der ableitenden Harnwege
Test: Stimulation of the motility of the gastrointestinal tract and the efferent urinary tract
Set-up: species or system Hund
Conditions: in vivo
Protocol: Die erfindungsgemässen Peptide stimulieren die Motorik des Magen-Darmtrakts und der ableitenden Harnwege beim Hund und beim Menschen. Sie steigern den Ruhetonus und die segmentale Kontraktionsaktivität des Darmes und fördern dadurch sekundär auch die Wasserresorption aus dem Darmlumen (lleum).
Die erfindungsgemässen Peptide wirken intravenös bereits in einer Dosierung von 10 ng/kg und können unbedenklich auch in höherer Dosierung angewandt werden. Auch Morphin übt unter geeigneten Bedingungen eine ähnliche Wirkung aus, jedoch erst in einer etwa 50 fach höheren Dosierung. Das parasympathomimetisch wirkende Carbaminoylcholin benötigt für die gleiche Wirkung etwa eine 10 fache Dosierung. So zählen die erfindungsgemässen Peptide zu den stärksten Effektoren der Motorik des Magen-Darmtrakts und der ableitenden Harnwege. Ihre morphinähnliche Wirkung ist zwar bekannt, doch überschreiten bei der geringen erforderlichen Dosierung weder nach intravenöser, subcutaner noch intranasaler Anwendung die wirksamen Dosen die Blut-Hirn-Schranke. Sie üben deshalb in der für den erfindungsgemässen Zweck erforderlichen Menge keine Wirkungen im Zentralnervensystem aus.

SMILES: CN1CC[C@]23c4c5ccc(O)c4O[C@H]2[C@@H](O)C=C[C@H]3[C@H]1C5 [Morphin]
- höhere Dosierung für ähnliche / gleiche Wirkung: ~50 fach
